According to publication PMC9177963:
No constants are given. Whether binding was seen depends on the method and setting. In cells and extracts the contact can be indirect. Some binding calls cover weakened binding; strength is not graded here.

The chains behind the UniProt entries cited, without tags or fusion partners.
UniProt Q9Z1E3: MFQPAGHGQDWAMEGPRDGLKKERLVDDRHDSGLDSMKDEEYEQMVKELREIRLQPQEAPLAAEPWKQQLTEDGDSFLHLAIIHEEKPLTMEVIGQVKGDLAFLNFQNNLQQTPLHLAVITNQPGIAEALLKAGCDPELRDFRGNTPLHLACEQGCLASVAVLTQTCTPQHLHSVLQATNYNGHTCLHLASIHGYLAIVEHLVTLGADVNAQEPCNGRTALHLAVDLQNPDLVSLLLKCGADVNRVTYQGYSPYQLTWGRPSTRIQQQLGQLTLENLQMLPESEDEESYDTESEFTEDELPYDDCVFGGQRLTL
UniProt Q02248: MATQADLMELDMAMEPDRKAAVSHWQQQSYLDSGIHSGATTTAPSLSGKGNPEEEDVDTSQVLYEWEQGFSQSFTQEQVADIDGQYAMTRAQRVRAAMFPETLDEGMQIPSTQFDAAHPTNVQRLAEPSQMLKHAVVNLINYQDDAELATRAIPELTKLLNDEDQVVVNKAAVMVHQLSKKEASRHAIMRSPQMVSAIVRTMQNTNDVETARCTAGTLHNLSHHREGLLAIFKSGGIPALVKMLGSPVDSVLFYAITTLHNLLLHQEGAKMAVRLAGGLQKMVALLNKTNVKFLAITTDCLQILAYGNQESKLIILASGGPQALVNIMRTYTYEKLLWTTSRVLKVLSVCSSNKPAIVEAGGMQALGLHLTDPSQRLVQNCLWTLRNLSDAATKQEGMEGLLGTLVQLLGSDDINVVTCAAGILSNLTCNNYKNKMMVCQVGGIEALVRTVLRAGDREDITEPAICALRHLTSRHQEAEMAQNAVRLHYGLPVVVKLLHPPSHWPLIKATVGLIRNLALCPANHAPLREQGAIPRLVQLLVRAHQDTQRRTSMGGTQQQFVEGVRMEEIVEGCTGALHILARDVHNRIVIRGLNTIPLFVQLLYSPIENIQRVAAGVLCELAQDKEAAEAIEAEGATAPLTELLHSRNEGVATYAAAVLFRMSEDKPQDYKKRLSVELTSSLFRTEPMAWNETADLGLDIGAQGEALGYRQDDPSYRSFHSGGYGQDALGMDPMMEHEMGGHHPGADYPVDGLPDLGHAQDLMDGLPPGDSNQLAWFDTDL
UniProt O88522: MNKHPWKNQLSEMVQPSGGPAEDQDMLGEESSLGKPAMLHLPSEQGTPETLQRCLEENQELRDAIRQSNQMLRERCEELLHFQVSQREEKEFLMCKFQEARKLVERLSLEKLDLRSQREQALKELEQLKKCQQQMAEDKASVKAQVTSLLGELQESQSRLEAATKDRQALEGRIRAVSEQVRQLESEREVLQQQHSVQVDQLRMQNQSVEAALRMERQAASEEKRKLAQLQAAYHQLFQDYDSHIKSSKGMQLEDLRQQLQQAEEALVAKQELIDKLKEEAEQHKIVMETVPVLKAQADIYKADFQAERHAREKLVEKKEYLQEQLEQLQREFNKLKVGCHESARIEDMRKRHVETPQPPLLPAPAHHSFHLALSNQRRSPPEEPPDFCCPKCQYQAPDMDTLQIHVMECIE

What was measured:
[1] = molecular target: T1, USP26 (ubiquitin-specific protease 26) (mouse (endogenous in mouse MSCs and BMMs)) (UniProt Q99MX1); assay: co-IP; endogenous proteins in mouse BMM whole-cell extracts; USP26 immunoprecipitates immunoblotted with antibodies against IKKα, IKKβ, IKKγ and IκBα
T1 sequence: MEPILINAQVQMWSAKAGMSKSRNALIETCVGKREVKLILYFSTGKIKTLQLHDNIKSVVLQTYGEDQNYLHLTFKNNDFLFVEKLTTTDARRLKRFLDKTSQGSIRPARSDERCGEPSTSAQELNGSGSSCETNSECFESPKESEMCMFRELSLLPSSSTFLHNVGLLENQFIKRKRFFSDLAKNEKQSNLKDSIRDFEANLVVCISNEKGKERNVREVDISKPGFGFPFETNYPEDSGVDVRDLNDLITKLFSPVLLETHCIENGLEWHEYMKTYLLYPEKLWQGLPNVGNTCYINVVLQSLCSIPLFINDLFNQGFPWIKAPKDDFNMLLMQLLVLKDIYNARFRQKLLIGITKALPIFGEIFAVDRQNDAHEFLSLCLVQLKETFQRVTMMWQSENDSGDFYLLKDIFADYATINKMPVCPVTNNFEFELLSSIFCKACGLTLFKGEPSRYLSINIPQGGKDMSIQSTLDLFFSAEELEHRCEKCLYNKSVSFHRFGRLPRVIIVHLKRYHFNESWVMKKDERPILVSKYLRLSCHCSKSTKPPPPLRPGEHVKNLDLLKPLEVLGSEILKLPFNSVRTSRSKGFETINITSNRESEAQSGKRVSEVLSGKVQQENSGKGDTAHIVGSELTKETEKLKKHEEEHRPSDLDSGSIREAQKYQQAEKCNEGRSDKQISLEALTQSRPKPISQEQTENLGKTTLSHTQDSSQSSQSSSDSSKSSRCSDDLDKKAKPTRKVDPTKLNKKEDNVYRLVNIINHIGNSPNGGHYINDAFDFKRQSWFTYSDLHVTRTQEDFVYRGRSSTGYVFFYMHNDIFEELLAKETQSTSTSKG

[2] = molecular target: T1, USP26 (ubiquitin-specific protease 26) (mouse (endogenous in mouse MSCs and BMMs)); assay: co-IP; endogenous proteins in mouse MSC whole-cell extracts; anti-USP26 antibody against control IgG, overnight at 4 °C, protein A&G beads, western blot
USP26 in 293 T cells = molecular target: T2, USP26 in 293 T cells (UniProt Q99MX1); assay: co-IP; 293 T cells ectopically expressing a Flag-tagged protein; whole-cell extracts, USP26 immunoprecipitates and the reverse (anti-Flag) immunoprecipitates, protein A&G beads, western blot
T2 sequence: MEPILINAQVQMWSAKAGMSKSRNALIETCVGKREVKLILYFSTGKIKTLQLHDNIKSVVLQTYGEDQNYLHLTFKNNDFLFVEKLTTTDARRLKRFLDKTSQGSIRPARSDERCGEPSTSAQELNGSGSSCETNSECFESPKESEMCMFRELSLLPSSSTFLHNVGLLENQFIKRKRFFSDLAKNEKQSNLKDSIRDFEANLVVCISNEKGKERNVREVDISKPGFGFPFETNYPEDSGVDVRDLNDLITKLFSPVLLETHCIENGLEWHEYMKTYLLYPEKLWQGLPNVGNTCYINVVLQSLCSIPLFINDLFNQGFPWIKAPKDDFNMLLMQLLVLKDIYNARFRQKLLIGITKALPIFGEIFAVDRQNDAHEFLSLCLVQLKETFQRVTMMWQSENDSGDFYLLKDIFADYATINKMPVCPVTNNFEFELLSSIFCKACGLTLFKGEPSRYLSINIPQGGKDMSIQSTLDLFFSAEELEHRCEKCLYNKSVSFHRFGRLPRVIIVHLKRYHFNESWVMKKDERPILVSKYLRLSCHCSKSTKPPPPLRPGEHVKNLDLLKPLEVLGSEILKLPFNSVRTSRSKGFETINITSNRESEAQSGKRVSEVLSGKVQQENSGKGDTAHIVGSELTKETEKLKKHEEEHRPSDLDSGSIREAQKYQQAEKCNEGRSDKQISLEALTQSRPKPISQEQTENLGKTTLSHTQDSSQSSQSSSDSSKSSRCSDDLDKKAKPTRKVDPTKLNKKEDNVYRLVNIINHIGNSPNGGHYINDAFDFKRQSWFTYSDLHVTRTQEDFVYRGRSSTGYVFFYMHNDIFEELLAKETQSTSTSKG

Flag-tagged IκBα = Flag-tagged IκBα (UniProt Q9Z1E3); assay: as above
Flag-tagged β-catenin = Flag-tagged β-catenin (UniProt Q02248); assay: as above

“IκBα (inhibitor of NF-κBα) (from UniProt Q9Z1E3 1-314)” was tested, and the binding [1] was “binds”.

In the case of β-catenin (from UniProt Q02248 1-781), the binding [2] is reported as “binds”.

In the case of IKKγ (from UniProt O88522 1-412), the binding [1] is reported as “no binding”.

“Flag-tagged IκBα (from UniProt Q9Z1E3 1-314)” was tested, and the binding (USP26 in 293 T cells) was “binds”.

“Flag-tagged β-catenin (from UniProt Q02248 1-781)” was tested, and the binding (USP26 in 293 T cells) was “binds”.

B1: USP26 in 293 T cells (enzyme, UniProt Q99MX1 1-835)
chain: MEPILINAQVQMWSAKAGMSKSRNALIETCVGKREVKLILYFSTGKIKTLQLHDNIKSVVLQTYGEDQNYLHLTFKNNDFLFVEKLTTTDARRLKRFLDKTSQGSIRPARSDERCGEPSTSAQELNGSGSSCETNSECFESPKESEMCMFRELSLLPSSSTFLHNVGLLENQFIKRKRFFSDLAKNEKQSNLKDSIRDFEANLVVCISNEKGKERNVREVDISKPGFGFPFETNYPEDSGVDVRDLNDLITKLFSPVLLETHCIENGLEWHEYMKTYLLYPEKLWQGLPNVGNTCYINVVLQSLCSIPLFINDLFNQGFPWIKAPKDDFNMLLMQLLVLKDIYNARFRQKLLIGITKALPIFGEIFAVDRQNDAHEFLSLCLVQLKETFQRVTMMWQSENDSGDFYLLKDIFADYATINKMPVCPVTNNFEFELLSSIFCKACGLTLFKGEPSRYLSINIPQGGKDMSIQSTLDLFFSAEELEHRCEKCLYNKSVSFHRFGRLPRVIIVHLKRYHFNESWVMKKDERPILVSKYLRLSCHCSKSTKPPPPLRPGEHVKNLDLLKPLEVLGSEILKLPFNSVRTSRSKGFETINITSNRESEAQSGKRVSEVLSGKVQQENSGKGDTAHIVGSELTKETEKLKKHEEEHRPSDLDSGSIREAQKYQQAEKCNEGRSDKQISLEALTQSRPKPISQEQTENLGKTTLSHTQDSSQSSQSSSDSSKSSRCSDDLDKKAKPTRKVDPTKLNKKEDNVYRLVNIINHIGNSPNGGHYINDAFDFKRQSWFTYSDLHVTRTQEDFVYRGRSSTGYVFFYMHNDIFEELLAKETQSTSTSKG
B1 was tested, and the binding (Flag-tagged IκBα) was “binds” and the binding (Flag-tagged β-catenin) was “binds”.

B2: IKKα (enzyme, UniProt Q60680 1-745)
chain: MERPPGLRPGAGGPWEMRERLGTGGFGNVSLYQHRELDLKIAIKSCRLELSSKNRERWCHEIQIMKKLDHANVVKACDVPEELNFLINDVPLLAMEYCSGGDLRKLLNKPENCCGLKESQILSLLSDIGSGIRYLHENKIIHRDLKPENIVLQDVGGKTIHKIIDLGYAKDVDQGSLCTSFVGTLQYLAPELFENKPYTATVDYWSFGTMVFECIAGYRPFLHHLQPFTWHEKIKKKDPKCIFACEEMTGEVRFSSHLPQPNSLCSLIVEPMESWLQLMLNWDPQQRGGPIDLTLKQPRCFALMDHILNLKIVHILNMTSAKIISFLLPCDESLHSLQSRIERETGINTGSQELLSETGISLDPRKPASQCVLDGVRGCDSYMVYLFDKSKTVYEGPFASRSLSDCVNYIVQDSKIQLPIIQLRKVWAEAVHYVSGLKEDYSRLFQGQRAAMLSLLRYNANLTKMKNTLISASQQLKAKLEFFRKSIQLDLERYSEQMTYGISSEKMLKAWKEMEEKAIHYSEVGVIGYLEDQIMSLHTEIMELQKSPYGRRQGDLMESLEQRAIDLYKQLKHRPPDHLYSDSTEMVKIIVHTVQSQDRVLKELFGHLSKLLGCKQKIIDLLPKVEVALSNIKEADNTVMFMQGKRQKEIWHLLKIACTQSSARSLVGSSLEGTVTPPVSAWLPPTLADREHPLTCVVTPQDGETLAQMIEENLNCLGHLSTIIREANEDQSSSLMSLDWSWLAE
For B2, the binding [1] was “no binding”.

B3: IKKβ (enzyme, UniProt O88351 1-757)
chain: MSWSPSLPTQTCGAWEMKERLGTGGFGNVIRWHNQATGEQIAIKQCRQELSPKNRNRWCLEIQIMRRLNHPNVVAARDVPEGMQNLAPNDLPLLAMEYCQGGDLRRYLNQFENCCGLREGAVLTLLSDIASALRYLHENRIIHRDLKPENIVLQQGEKRLIHKIIDLGYAKELDQGSLCTSFVGTLQYLAPELLEQQKYTVTVDYWSFGTLAFECITGFRPFLPNWQPVQWHSKVRQKSEVDIVVSEDLNGAVKFSSSLPFPNNLNSVLAERLEKWLQLMLMWHPRQRGTDPQYGPNGCFRALDDILNLKLVHVLNMVTGTVHTYPVTEDESLQSLKTRIQENTGILETDQELLQKAGLVLLPDKPATQCISDSKTNEGLTLDMDLVFLLDNSKINYETQITPRPPPESVSCILQEPKRNLSFFQLRKVWGQVWHSIQTLKEDCNRLQQGQRAAMMSLLRNNSCLSKMKNAMASTAQQLKAKLDFFKTSIQIDLEKYKEQTEFGITSDKLLLAWREMEQAVEQCGRENDVKHLVERMMALQTDIVDLQRSPMGRKQGGTLDDLEEQARELYRKLREKPRDQRTEGDSQEMVRLLLQAIQSFEKKVRVIYTQLSKTVVCKQKALELLPKVEEVVSLMNEDERTVVRLQEKRQKELWNLLKIACSKVRGPVSGSPDSMNVSRLSHPGQLMSQPSSACDSLPESDKKSEELVAEAHALCSRLESALQDTVKEQDRSFTTLDWSWLQMEDEERCSLEQACD
In the case of B3, the binding [1] is reported as “no binding”.
